Test results taken from article PMC4974663.
Results are given in words; binding and its absence hold for the method and conditions named. For some assays here: In cells and extracts the contact can be indirect. Some binding calls cover weakened binding; strength is not graded here. For some assays here: Where a sequence is shown, tags or fusion partners need not be part of it.

Chains of the proteins cited; added tags and fusions are not shown.
UniProt Q9Y3D8: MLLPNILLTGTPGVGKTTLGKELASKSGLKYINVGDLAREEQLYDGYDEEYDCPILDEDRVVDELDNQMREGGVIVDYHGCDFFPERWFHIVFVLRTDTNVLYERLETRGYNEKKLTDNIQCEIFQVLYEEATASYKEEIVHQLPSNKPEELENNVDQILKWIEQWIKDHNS

Tests used:
[1] = molecular target: T1, Nob1 (in the GST pull-down with hCINAP) (UniProt Q9ULX3); assay: pull-down; in vitro GST pull-down of hCINAP and Nob1; which protein carried GST is not told; both purified
T1 sequence: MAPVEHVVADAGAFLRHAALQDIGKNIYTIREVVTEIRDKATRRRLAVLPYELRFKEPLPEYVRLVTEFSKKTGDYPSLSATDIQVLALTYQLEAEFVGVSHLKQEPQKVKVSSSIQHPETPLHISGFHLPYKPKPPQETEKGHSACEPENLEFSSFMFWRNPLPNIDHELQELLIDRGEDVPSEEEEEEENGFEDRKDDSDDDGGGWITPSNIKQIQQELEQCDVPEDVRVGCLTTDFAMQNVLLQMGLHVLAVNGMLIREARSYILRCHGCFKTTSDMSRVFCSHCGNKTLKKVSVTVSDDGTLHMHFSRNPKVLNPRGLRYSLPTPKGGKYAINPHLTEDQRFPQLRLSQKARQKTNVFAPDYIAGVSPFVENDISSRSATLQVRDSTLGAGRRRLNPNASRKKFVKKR

[2] = molecular target: T2, Nob1 (in the co-IP with hCINAP) (UniProt Q9ULX3); assay: co-IP; co-IP of Nob1 and hCINAP (Supplementary Fig. 3i); cells and constructs not told
T2 sequence: T1 sequence

## hCINAP (in the GST pull-down with Nob1) (from UniProt Q9Y3D8 1-172) (enzyme)
[1]
  binding: binds

## hCINAP (in the co-IP with Nob1) (from UniProt Q9Y3D8 1-172) (enzyme)
[2]
  binding: binds
